Patent US8778871B2 (Takeda Pharmaceutical Company Limited, priority 2004, dated 2014)

Columns and labels:
[1] = general procedure: Fmoc solid-phase peptide synthesis; Rink Amide MBHA resin; DIPCDI/HOAt; PyAOP/HOAt/DIEA; PyBrop/HOAt; details: whole synthesis
[2] = general procedure: Fmoc solid-phase peptide synthesis; Rink Amide MBHA; DIPCDI/HOAt; PyAOP/HOAt/DIEA; PyBrop/HOAt; details: whole synthesis
[3] = general procedure: Fmoc solid-phase peptide synthesis; 2-chlorotrityl chloride; DIPCDI/HOAt; PyAOP/HOAt/DIEA; PyBrop/HOAt; details: whole synthesis
[4] = general procedure: Fmoc solid-phase peptide synthesis; Rink amide MBHA; DIPCDI/HOAt; PyAOP/HOAt/DIEA; PyBrop/HOAt; details: whole synthesis, scale 15 μmol

Substance: Ac-D-Tyr(^tBu)-D-Trp(Boc)-Dap(Mtt)-Ser(^tBu)-Phe-AzaGly-Leu-Arg(Boc2,Me)-Trp(Boc)-Rink Amide MBHA resin
- isolated mass ([1]; scale 0.257 mmol, acetate): 58.3 mg

Substance: Ac-D-Tyr-D-Pya(4)-Asn-Thr-Phe-AzaGly-Leu-Arg(Me)-Trp-NH2
- crude mass ([2]; scale 1 mmol): 949.0 mg
- isolated mass ([2]; scale 1 mmol, TFA salt): 361.1 mg
- isolated mass ([2]; scale 1 mmol, acetate): 309.3 mg

Substance: Ac-D-Tyr-D-Trp-Alb-Ser-Phe-AzaGly-Leu-Arg(Me)-Trp-NH2
- isolated mass ([2]; scale 0.257 mmol, TFA salt): 106.5 mg
- isolated mass ([2]; scale 0.257 mmol, acetate): 97.5 mg

Substance: Ac-[dY][dW]NTF[azaGly]L[Arg(Me)]W-NH2
- crude mass ([2]; scale 1 mmol): about 650 mg
- isolated mass ([2]; scale 1 mmol, TFA salt): 255.5 mg
- isolated mass ([2]; scale 1 mmol, acetate): 225.3 mg

Substance: Ac-[dY][dW][Dap]SF[azaGly]L[Arg(Me)]W-NH2
- isolated mass ([1]; scale 0.257 mmol): 106.5 mg

Substance: Benzoyl-AzaPhe-AzaGly-Leu-Arg(Me)-Trp-NH2
- isolated mass ([2]; scale 0.015 mmol): 3.2 mg

Substance: Boc-D-Tyr(Bu^t)D-Pya(4)Asn(Trt)Ser(Bu^t)PheAzaGlyLeu-OH
- crude yield [3]: 98%

Substance: Bzl2NCO-AzaGly-Leu-Arg(Boc2,Me)-Trp(Boc)-Rink Amide MBHA resin
- isolated mass ([2]; scale 0.015 mmol, acetate): 2.2 mg

Substance: des(1)-[D-Tyr2,D-Pya(4)3,AzaGly7,Arg(Me)9,Trp10]MS10
- isolated mass ([1]; scale 0.03 mmol, acetate): 6.6 mg

Substance: des(1-3)-3-Phenylpropionyl-[AzaGly7,Arg(Me)9,Trp10]MS10
- isolated mass ([2]; scale 0.05 mmol, acetate): 5.2 mg

Substance: des(1-5)-4-Pyridinecarbonyl-[AzaGly7,Arg(Me)9,Trp10]MS10
- isolated mass ([2]; scale 0.1 mmol, acetate): 21.6 mg

Substance: des(1-5)-Benzoyl-[6Ψ7,CH2O,Arg(Me)9,Trp10]MS10
- isolated mass [4]: 2.5 mg

Non-standard residues stand in square brackets, D forms with d. Arg(Me) = CNC(=N)NCCC[C@H](N)C(=O)O; Dap = NC[C@H](N)C(=O)O; azaGly = NNC(=O)O
